PubChem BioAssay AID743454 | Peter MacCallum Cancer Centre | 2014
Shown is a random part of about 18,000 reagents. In the full data, 450 (2.5%) got an active call. 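Single biological run; no consistent viability z cut-off exists, so the class columns, not z-scores, define the calls.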

Test: 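Genes whose loss kills vorinostat-resistant colon cancer cells under vorinostat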 (primary screen)
Cell system: human HCT116-VR colon cancer cells, selected for vorinostat resistance
Knock-down reagent: siRNA pool against human genes, 40 nM siRNA pool
Duration: vorinostat for 24 h, read-out about 72 h after transfection
Conditions: vorinostat at 2.5 µM final
Measurement: 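Two measures, CellTiter-Fluor viability and luminescent caspase 3/7 activity, each as fold change against same-plate mock wells, mean of duplicates, then screen-wide robust z-score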
Reading the numbers: viability robust z-score: higher = more viable cells than screen typical; caspase robust z-score: higher = more caspase 3/7 activity than screen typical
Active means: 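a knock-down is a hit when classed RV1 or RV2 for lowered viability, or CA1 or CA2 for caspase activation; those lethal without drug were dropped; hits were retested singly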

Silencing of ANKK1 (GeneID 255239) resulted in: viability hit class no change; caspase hit class no change; viability robust z-score 0.24; caspase robust z-score 0.02; inactive.
With knock-down of KRT3 (GeneID 3850) the results were viability hit class no change; caspase hit class no change; viability robust z-score -0.88; caspase robust z-score 2.44; inactive.
For MED11 (GeneID 400569), the entry reads viability hit class no change; caspase hit class no change; viability robust z-score -0.56; caspase robust z-score 0.64; inactive.
Depletion of DIMT1 (GeneID 27292) came out at: viability hit class no change; caspase hit class no change; viability robust z-score 0.28; caspase robust z-score 1.43; inactive.
Against MUC4 (GeneID 4585), the entry reads viability hit class no change; caspase hit class no change; viability robust z-score 0.44; caspase robust z-score -0.6; inactive.
With knock-down of ATP5MC2 (GeneID 517), the screen gave viability hit class no change; caspase hit class no change; viability robust z-score -0.01; caspase robust z-score 0.95; inactive.
Depletion of ILKAP (GeneID 80895) came out at: viability hit class no change; caspase hit class no change; viability robust z-score 0.59; caspase robust z-score 0.37; inactive.
For MTMR2 (GeneID 8898), the entry reads viability hit class no change; caspase hit class no change; viability robust z-score -0.36; caspase robust z-score 0.37; inactive.
Silencing of RYR3 (GeneID 6263) resulted in: viability hit class no change; caspase hit class no change; viability robust z-score -0.98; caspase robust z-score -0.04; inactive.
Silencing of PIGM (GeneID 93183) gave: viability hit class no change; caspase hit class no change; viability robust z-score -0.86; caspase robust z-score 3.37; inactive.
For CYP2C8 (GeneID 1558), the values are viability hit class no change; caspase hit class no change; viability robust z-score 0.53; caspase robust z-score -1.05; inactive.
With knock-down of LRRN4 (GeneID 164312) the results were viability hit class no change; caspase hit class no change; viability robust z-score 0.18; caspase robust z-score 0.54; inactive.

A few values from the list:
LRRN4 (GeneID 164312), viability hit class: no change
Under “call”, PIGM (GeneID 93183) has inactive
